These are yes or no findings as the source states them, for the method shown. In cells and extracts the contact can be indirect. Some binding calls cover weakened binding; strength is not graded here.
Target: pY30-β-catenin (human (endogenous in MCF7)) (UniProt P35222)
Experiment: co-IP; lysates of parental (nontransfected) and GFP-Syk-expressing MCF7 cells; ≈700 μg lysate with 2 μg antibody, protein-A/G Sepharose beads, 4 °C, 3 h; Western blot

By UniProt entry, the sequences of proteins in these tests, tags left out.
UniProt P35222: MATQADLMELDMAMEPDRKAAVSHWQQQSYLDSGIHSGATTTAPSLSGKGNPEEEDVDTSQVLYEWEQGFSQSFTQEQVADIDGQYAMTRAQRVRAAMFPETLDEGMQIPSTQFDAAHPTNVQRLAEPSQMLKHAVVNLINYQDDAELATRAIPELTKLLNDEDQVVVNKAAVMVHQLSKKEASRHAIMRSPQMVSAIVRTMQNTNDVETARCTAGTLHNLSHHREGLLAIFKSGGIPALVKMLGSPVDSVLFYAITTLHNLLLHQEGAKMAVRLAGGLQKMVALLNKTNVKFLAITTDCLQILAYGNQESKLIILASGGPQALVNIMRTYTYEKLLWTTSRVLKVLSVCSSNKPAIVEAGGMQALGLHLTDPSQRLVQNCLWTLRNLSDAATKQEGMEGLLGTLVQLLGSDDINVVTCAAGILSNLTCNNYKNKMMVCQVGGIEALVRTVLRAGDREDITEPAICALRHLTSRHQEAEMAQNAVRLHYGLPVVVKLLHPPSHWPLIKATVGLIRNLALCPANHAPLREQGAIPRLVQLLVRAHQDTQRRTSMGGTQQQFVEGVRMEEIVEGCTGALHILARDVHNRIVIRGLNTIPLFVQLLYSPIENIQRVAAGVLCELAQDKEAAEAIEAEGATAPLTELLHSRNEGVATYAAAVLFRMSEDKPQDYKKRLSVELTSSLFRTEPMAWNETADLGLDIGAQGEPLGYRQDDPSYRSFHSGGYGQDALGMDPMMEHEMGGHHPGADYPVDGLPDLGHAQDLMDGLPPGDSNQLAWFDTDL
UniProt P35221: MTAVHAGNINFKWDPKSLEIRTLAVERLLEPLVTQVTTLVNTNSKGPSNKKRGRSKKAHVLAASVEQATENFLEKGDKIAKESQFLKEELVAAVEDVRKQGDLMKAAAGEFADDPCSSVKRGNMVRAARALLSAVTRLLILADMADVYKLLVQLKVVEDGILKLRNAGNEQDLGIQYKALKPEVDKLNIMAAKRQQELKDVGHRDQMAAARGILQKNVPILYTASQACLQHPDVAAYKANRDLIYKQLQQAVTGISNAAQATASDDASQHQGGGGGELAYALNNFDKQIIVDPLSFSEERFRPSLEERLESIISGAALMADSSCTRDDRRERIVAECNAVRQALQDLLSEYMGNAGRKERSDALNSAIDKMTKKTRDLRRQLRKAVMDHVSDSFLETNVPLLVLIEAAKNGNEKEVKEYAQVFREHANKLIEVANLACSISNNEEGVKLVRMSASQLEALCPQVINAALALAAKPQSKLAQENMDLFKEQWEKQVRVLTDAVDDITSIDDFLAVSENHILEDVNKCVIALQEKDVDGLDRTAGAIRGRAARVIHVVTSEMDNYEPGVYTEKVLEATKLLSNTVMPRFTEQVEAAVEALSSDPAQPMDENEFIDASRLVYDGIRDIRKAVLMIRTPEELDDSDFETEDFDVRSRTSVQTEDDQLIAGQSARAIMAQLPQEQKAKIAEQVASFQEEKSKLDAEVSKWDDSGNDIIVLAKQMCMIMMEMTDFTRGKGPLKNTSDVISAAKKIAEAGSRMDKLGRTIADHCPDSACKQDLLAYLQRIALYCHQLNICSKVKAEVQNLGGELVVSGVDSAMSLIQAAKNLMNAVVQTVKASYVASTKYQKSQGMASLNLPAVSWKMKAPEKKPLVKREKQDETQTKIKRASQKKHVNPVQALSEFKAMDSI

- binding: binds
Substance: α-catenin (from UniProt P35221 1-906)

— paper PMC6966528
